# Where a name gives a salt, the structure may show the parent alone. Some of the results follow. Most entries show no effect beyond the scatter of the controls.
# Test system: hPSC-derived cortical neurons (WA09)
# Assay: total neurite length per nucleus (MAP2) z-score; higher = more neurite growth
# Conditions: 5 µM; treatment: days 7-14 after plating, readout day 21
row,Structure (SMILES),total neurite length per nucleus (z-score)
1,CN1CCC(COc2cnc(-c3cccc(Cn4nc(-c5cccc(C#N)c5)ccc4=O)c3)nc2)CC1,-0.614
2,CNC(=O)c1ccc(N2C(=S)N(c3cnc(C#N)c(C(F)(F)F)c3)C(=O)C23CCC3)cc1F,-1.21
3,C[C@]12C=CC(=O)C=C1CC[C@@H]1[C@@H]2[C@@H](O)C[C@@]2(C)[C@H]1CC[C@]2(O)C(=O)CO [Prednisolone],0.00676
4,Oc1c(I)cc(I)c2cccnc12 [Diiodohydroxyquinoline],1.57
5,C=C1C[C@@]2(O)O[C@@]3(C[C@H]2C(C)C)[C@@H](C)CC[C@@H]13 [Curcumol],0.0675
6,O=C(c1ccccc1)c1ccc2n1CCC2C(=O)O (configuration not stated) [Ketorolac],1.11
7,COC(=O)CC[C@H](NC(=O)[C@H](CC(=O)OC)NC(=O)OCc1ccccc1)C(=O)N[C@H](C(=O)N[C@@H](CC(=O)OC)C(=O)CF)C(C)C,1.73
8,O=C(c1cccc(Cl)c1F)N1CCN(Cc2cccc(Nc3nccs3)n2)CC1,0.0109
9,CNC(=O)[C@H](Cc1ccccc1)NC(=O)[C@H](CC(C)C)[C@H](CSc1cccs1)C(=O)NO [Batimastat (BB-94)],-1.25
10,C[C@H](CCC(=O)O)[C@H]1CC[C@H]2[C@@H]3CC[C@@H]4C[C@H](O)CC[C@]4(C)[C@H]3C[C@H](O)[C@]12C [Deoxycholic acid],-0.161
11,CCCC(=O)O[C@]1(C(=O)COC(C)=O)CC[C@H]2[C@@H]3C[C@H](F)C4=CC(=O)C=C[C@]4(C)[C@@]3(F)[C@@H](O)C[C@@]21C [Difluprednate],0.755
12,CNc1nc(Nc2cn(C(C)(C)C#N)nc2C)ncc1C(F)(F)F,0.0661
13,CC[C@H](C)[C@@H]1NC(=O)[C@H](Cc2ccc(O)cc2)NC(=O)[C@@H](N)CSSC[C@@H](C(=O)N2CCC[C@H]2C(=O)N[C@@H](CC(C)C)C(=O)NCC(N)=O)NC(=O)[C@H](CC(N)=O)NC(=O)[C@H](CCC(N)=O)NC1=O [Oxytocin (Syntocinon)],0.0425
14,CN(Cc1cnc2nc(N)nc(N)c2n1)c1ccc(C(=O)N[C@@H](CCC(=O)O)C(=O)O)cc1 [Methotrexate],0.47
15,O=C(/C=C\n1cnc(-c2cc(C(F)(F)F)cc(C(F)(F)F)c2)n1)NNc1ccccn1 [Verdinexor (KPT-335)],-2.82
16,CCN1CCCC1CNC(=O)c1cc(S(=O)(=O)CC)c(N)cc1OC (configuration not stated) [Amisulpride],3.9

row,Structure (SMILES),total neurite length per nucleus (z-score)
1,CC(C)(C(=O)NCC(F)(F)C(F)(F)F)C(=O)N[C@@H]1C(=O)Nc2ccccc2-c2ccccc21,-0.819
2,CC1CC(OC(=O)C(O)c2ccccc2)CC(C)(C)C1 (configuration not stated) [Cyclandelate],0.494
3,CCc1c(C(=O)NCCc2ccc(N3CCCCC3)cc2)[nH]c2ccc(Cl)cc12,0.387
4,COc1ncc(-c2ccc3nccc(-c4ccnnc4)c3c2)cc1NS(=O)(=O)c1ccc(F)cc1F,-3.62
5,NCc1c[nH]c(=S)n1[C@H]1CCc2c(F)cc(F)cc2C1 [Nepicastat (SYN-117) HCl],-1.4
6,Cc1cc(/N=N/c2ccc(S(=O)(=O)Nc3ccccn3)cc2)c(N)cc1O,1.16
7,CC1=C(CC(=O)O)c2cc(F)ccc2/C1=C\c1ccc([S+](C)[O-])cc1 (configuration not stated) [Sulindac],0.187
8,CC1(C)S[C@@H]2[C@H](NC(=O)[C@H](N)c3ccc(O)cc3)C(=O)N2[C@H]1C(=O)O [Amoxicillin],0.966
9,"COc1ccc(C(=O)c2ccccc2O)c(O)c1 [2,2_-Dihydroxy-4-methoxybenzophenone]",0.744
10,Cc1cccc(-c2[nH]c(CNc3ccccc3F)nc2-c2ccc3ncnn3c2)n1,-2.02
11,CN(CCOc1ccc(CC2SC(=O)NC2=O)cc1)c1ccccn1 (configuration not stated) [Rosiglitazone],0.285
12,O=C(Nc1cccc(Cl)c1)c1ccccn1,-0.261
13,CN1CCN(c2ccc(OC(F)(F)F)c(Nc3ncc4c(n3)-c3c(c(C(N)=O)nn3CCO)CC4)c2)CC1,0.0883
14,C#Cc1cccc(Nc2ncnc3cc(OCCOC)c(OCCOC)cc23)c1 [Erlotinib],0.411
15,COc1ccccc1N1CCN(CC(O)COc2cccc3ccccc23)CC1 (configuration not stated) [Naftopidil DiHCl],-1.7
16,NC[C@H]1O[C@H](O[C@H]2[C@H](O)[C@@H](O[C@H]3O[C@H](CO)[C@@H](O)[C@H](N)[C@H]3O)[C@H](N)C[C@@H]2N)[C@H](O)[C@@H](O)[C@@H]1O [Kanamycin sulfate],0.764

# Fetched one by one from above:
row,Structure (SMILES),total neurite length per nucleus (z-score)
9,CNC(=O)[C@H](Cc1ccccc1)NC(=O)[C@H](CC(C)C)[C@H](CSc1cccs1)C(=O)NO [Batimastat (BB-94)],-1.25
15,O=C(/C=C\n1cnc(-c2cc(C(F)(F)F)cc(C(F)(F)F)c2)n1)NNc1ccccn1 [Verdinexor (KPT-335)],-2.82
